AC50 data for 64 compounds are collected here from PubChem BioAssay AID493014 (National Center for Advancing Translational Sciences (NCATS), 2011).

This is one part of the list. Further columns of the screen follow, without active or inactive calls. The list favours compounds with an active or inconclusive main result. Potencies come from curve fits of mixed quality, noted in brackets.

This experiment is described as follows: qHTS Assay to Find Inhibitors of Chronic Active B-Cell Receptor Signaling. The note with it: ABC-DLBCL IkBa-CBG/CBR reporter, luminescence ratio (green luciferase fused to IkBa over red control in TMD8 lymphoma cells), 4 h. Summed up: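 Cell line TMD8 (human ABC DLBCL), stably expressing tet-inducible CBG68-IkBa fusion and CBR; IMDM/0.5% FBS; cpd up to 46 uM; dox induction, 4 h, 37C/5% CO2; dual luminescence; green/red ratio; MG132 control.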
In general terms: In qHTS, concentration-response curves come from the screen itself.

The mark [1] stands for this setting: measured here: CBR red luminescence, cell number.
The mark [2] stands for this setting: measured here: IkBa-CBG green luminescence.

Turning to `CCCN(CCC)c1c([N+](=O)[O-])c(=O)oc2ccccc12`, the AC50 (as a rule, the concentration at which the activity in the assay is half-maximal) under setting [1] was 16.4 µM [falling, partial curve, poor fit].
As to `Cc1cc(Br)ccc1NC(=O)c1sc2ncnc(N3CCN(c4ccccn4)CC3)c2c1C`, the AC50 under setting [1] was 6.31 µM [falling, single point].
With `Cc1cc(C)c2c(c1)/C(=N/NC(=S)Nc1ccc(F)cc1)CCC2`, the AC50 under setting [1] is 0.291 µM [falling, full curve, poor fit].
As for `CCN1c2ccc(S(=O)(=O)N3CCOCC3)cc2N(Cc2ccc(OC)cc2)C1C` (stereo not given), under setting [1], the AC50 is 8.91 µM [rising, partial curve, poor fit].
As for `CCCCCCOC(=O)c1ccccc1NC(=O)/C=C/C(=O)O`, under setting [1], the half-maximal activity concentration (AC50) was 0.562 µM [rising, partial curve, poor fit].
On the same count and under the same terms, under `Cc1ccc(CN(C)C(=O)C2CCN(C(=O)Nc3ccccc3)CC2)o1` stands 14.6 µM [rising, partial curve]; under `O=C(O)Cc1sc(Nc2cccc3ccccc23)nc1-c1ccc(Cl)cc1`, 15.8 µM [falling, partial curve, poor fit].
Still for that read-out and setting: under `Cn1c(COc2ccccc2Br)nc2ccccc21` stands 5.62 µM [rising, single point].
With `COc1ccc(CN(C)C(=O)CCN2C(=O)c3ccccc3C2=O)c(OC)c1OC`, the AC50 under setting [2] is 7.08 µM [falling, partial curve, poor fit].
On to `O=C(Nc1ccc(NC(=O)c2sc3ccccc3c2Cl)cc1)c1ccco1`, for which, under setting [1], the half-maximal activity concentration (AC50) was 2.91 µM [rising, full curve, poor fit].
Consider `Cc1cccc(C(=O)N/N=C/c2ccoc2)c1`, for which the concentration at half-maximal activity (AC50) under setting [1] is 15.8 µM [falling, partial curve, poor fit].
For the compound `COc1ccc(-c2ccc(-c3noc(C)n3)c(OC)n2)cc1`, the AC50 under setting [1] was 20.6 µM [rising, single point].
On the same count and under the same terms, the figure for `Cc1cccc2sc(NC(=O)CCNS(=O)(=O)c3cccc4nonc34)nc12` is 15.8 µM [falling, partial curve, poor fit]; for `COc1ccccc1NC(=O)C1=C(C)NC(SCC(=O)Nc2ccc(C(=O)O)cc2)=C(C#N)C1c1cccs1` (stereo not given) it is 7.94 µM [falling, partial curve]; for `COc1ccccc1N1CCN(C2CCN(C(=O)COc3ccccc3)CC2)CC1` it is 35.5 µM [rising, single point].
On the same count and under the same terms, the figure for `Fc1ccc(-c2nc3ccncc3[nH]2)cc1` is 18.4 µM [falling, single point]; for `N#Cc1ccc(C(=O)Nc2nnc(-c3ccccn3)o2)cc1` it is 2.91 µM [falling, full curve].
Turning to `COC(=O)C(CCSC)NC(=O)c1cc2c(n(-c3ccc(C)cc3)c1=O)CCCC2=O` (stereo not given), the AC50 reads like this: under setting [1], 12.6 µM [rising, single point]; under setting [2], 12.6 µM [falling, single point].
Take `CN(CC(=O)Nc1ccccc1Cl)C(=O)CSc1nc2ccccc2s1`: under setting [1], the AC50 was 2.59 µM [rising, full curve, poor fit].
For `Cc1sc2ncnc(N3CCC(C(=O)NNC(=O)COc4ccccc4Cl)CC3)c2c1C`, the AC50 under setting [1] was 16.4 µM [falling, single point].
The same measure, in the same setting: under `COc1ccc2c(CC(=O)OCC(=O)NC(=O)c3cccn3C)coc2c1` stands 8.91 µM [rising, partial curve, poor fit]; under `NC(=S)NNc1ccnc2cc(Cl)ccc12`, 7.08 µM [rising, partial curve]; under `O=C1NC(c2ccccc2)=C(c2nc3ccccc3s2)C(c2ccccc2)N1` (stereo not given), 11.2 µM [falling, partial curve, poor fit].
For the compound `COCCN(C(=O)CSc1nnc(C)n1Cc1ccccc1)c1c(N)n(Cc2ccccc2)c(=O)[nH]c1=O`, under setting [1], the concentration at half-maximal activity (AC50) is 17.8 µM [rising, single point].
On the same count and under the same terms, under `N#Cc1ccc(-c2ccco2)nc1SCc1ccccc1` stands 10 µM [rising, partial curve]; under `O=C(NC1CCCCC1)N1CCCCCC1`, 35.5 µM [falling, single point]; under `Cc1cc(C)n(-c2nc3ccccc3nc2Nc2ccc3[nH]c(=O)[nH]c3c2)n1`, 0.517 µM [falling, full curve, poor fit].
With `CCOC(=O)c1[nH]c(C)c(C(=O)N2CCOCC2)c1C`, under setting [1], the half-maximal activity concentration (AC50) was 0.13 µM [falling, full curve, poor fit].
On the same count and under the same terms, under `O=C(O)CSc1cc(C(=O)c2cc(F)ccc2O)cn2c(=O)c3c(-c4ccccc4)csc3nc12` stands 0.562 µM [falling, full curve, poor fit]; under `COc1ccc(-n2c(CN3CCC(C)CC3)nc3ccc([N+](=O)[O-])cc3c2=O)c(OC)c1`, 7.08 µM [falling, partial curve, poor fit].
The same measure, in the same setting: under `N/C(Cc1ccc(Cl)cc1)=N\OC(=O)c1ccccc1` stands 0.411 µM [rising, partial curve, poor fit].
Turning to `Cc1ccccc1NS(=O)(=O)c1ccc2[nH]cc(C(=O)NCCc3ccccc3)c(=O)c2c1`, under setting [1], the concentration at half-maximal activity (AC50) is 16.4 µM [falling, single point].
Still for that read-out and setting: the figure for `C=CCNC(=S)/N=c1\sccn1C` is 4.47 µM [rising, partial curve, poor fit].
The same measure, in the same setting: under `CCn1nc(C(=O)Nc2ccc3nc(C)sc3c2)c2ccccc2c1=O` stands 8.2 µM [rising, partial curve, poor fit]; under `CCC(C)(C)n1nnnc1C(c1cc2cc3c(cc2[nH]c1=O)OCO3)N1CCN(C)CC1` (stereo not given), 12.6 µM [falling, partial curve, poor fit]; under `COc1ccc(C)cc1-n1c(N)c(C#N)c(C#N)c1-c1ccc(OC)c(OC)c1OC`, 18.4 µM [falling, single point].
Same read-out and setting: under `COC/C=C/C1=CC2=CC(=O)C(C)(OC(=O)CCC(=O)OC)C(=O)C2=CO1` (stereo not given) stands 35.5 µM [rising, single point]; under `COc1cc(Cn2c(C(=O)O)cc3sccc32)cc(OC)c1OC`, 29.1 µM [rising, single point].
Consider `NC(=O)c1ccc(-n2nnnc2Oc2ccccc2C(=O)N2CCOCC2)cc1`, for which the concentration at half-maximal activity (AC50) under setting [1] is 1.16 µM [falling, full curve].
As for `CCCCS/C(N)=N/N=C/c1cc(C)ccc1O`, under setting [2], the AC50 was 18.4 µM [falling, single point].
Consider `O=C(CCCC(=O)c1ccccc1)NCc1ccccc1`, for which the AC50 under setting [1] was 17.8 µM [rising, single point].
The same measure, in the same setting: under `COC(=O)c1c(C#N)c(N)nc2c1CCCC2` stands 0.794 µM [falling, full curve, poor fit]; under `CC(=O)NNc1ncnc2c1cnn2-c1ccccc1`, 7.08 µM [falling, partial curve, poor fit].
Same read-out and setting: the figure for `CN(C)CCCNC(=O)/C(=C\c1ccc(-c2ccc(Br)cc2)o1)NC(=O)c1ccccc1` is 32.6 µM [falling, single point].
On the same count and under the same terms, the figure for `CN(c1ccccc1C(=O)Nc1ccc(CC#N)cc1)S(=O)(=O)c1ccccc1` is 35.5 µM [rising, single point]; for `CC(=O)N1CCN(c2nnnn2-c2ccccc2)CC1` it is 2.59 µM [falling, full curve, poor fit]; for `c1ccc(NCCCNc2ccccc2)cc1` it is 7.31 µM [rising, single point].
Consider `O=C1c2ccccc2-c2c1cccc2C(=O)N1CCCCC1`, for which, under setting [1], the concentration at half-maximal activity (AC50) was 32.6 µM [rising, partial curve, poor fit].
For the compound `CSc1nc(N)c(C#N)c(-c2ccc(Cl)cc2)c1C#N`, the AC50 under setting [1] is 15.8 µM [falling, partial curve].
In the case of `COc1ccc(Cl)cc1NC(=O)CC1S/C(=N/N=C2CCCCCC2)NC1=O` (stereo not given), under setting [1], the concentration at half-maximal activity (AC50) is 7.08 µM [falling, partial curve].
On the same count and under the same terms, under `COCCNC(=O)c1onc(CSc2ccccc2)c1C(=O)O` stands 10 µM [falling, partial curve].
On the same count and under the same terms, under `CC(=O)NC1CC2CCCC(C1)N2CC(=O)NCc1ccc(F)cc1` (stereo not given) stands 2.06 µM [falling, partial curve, poor fit].
Same read-out and setting: the figure for `Cc1ccccc1OCCC(=O)Nc1cccc(S(=O)(=O)Nc2ccccc2Cl)c1` is 23.1 µM [falling, partial curve, poor fit]; for `COc1cccc(-c2cc3nc4c(c(N5CCC6(CC5)OCCO6)n3n2)CCCC4)c1` it is 18.4 µM [falling, single point].
As to `CCOc1ccc(NC(=O)c2ccc3c(c2)OCCO3)cc1S(=O)(=O)N(CC)CC`, the half-maximal activity concentration (AC50) under setting [1] is 0.58 µM [falling, full curve, poor fit].
Same read-out and setting: the figure for `Cc1cc(C)c(S(=O)(=O)NCCc2sc3nc(-c4ccc(F)cc4)nn3c2C)c(C)c1` is 8.91 µM [falling, partial curve, poor fit]; for `Cc1ccc(S(=O)(=O)NC(C)C(=O)OCC(=O)N(C)c2ccccc2)cc1` (stereo not given) it is 6.51 µM [rising, single point].
Regarding `C=CCc1c(C)nc(SCc2nc3ccccc3c(=O)[nH]2)[nH]c1=O`, the AC50 under setting [1] is 14.6 µM [falling, single point].
Same read-out and setting: under `CC(C)(C)C1CCc2c(sc3nc(SCC(N)=O)nc(N)c23)C1` (stereo not given) stands 5.8 µM [falling, partial curve]; under `Nc1ccc2c(c1)C(=O)N(CCCCCC(=O)O)C2`, 5.8 µM [rising, partial curve, poor fit]; under `COc1ccc(NC(=O)CCSc2cc(C)c3ccccc3n2)cc1`, 3.98 µM [rising, full curve, poor fit].
Same read-out and setting: under `Cc1ccc(-n2ncc3c(NCc4ccco4)ncnc32)c(C)c1` stands 0.116 µM [rising, full curve, poor fit].
Regarding `CCOc1ccc(-n2c(C)nc3cc(C(=O)NC4CCCC4)ccc32)cc1`, the half-maximal activity concentration (AC50) under setting [1] was 1.41 µM [rising, full curve].
`Cc1ccccc1CS(=O)(=O)CCC(=O)N1CCN(c2ccc(N3CCOCC3)nn2)CC1`: the AC50 under setting [1] was 0.184 µM [rising, full curve, poor fit].
